Assay results: PubChem BioAssay AID1487 (National Center for Advancing Translational Sciences (NCATS), 2009)
Values joined by “and” are separate entries in the source; they are usually repeats but may differ in a detail not shown here. Equal entries are not always repeated. This is one part of the list. Shown are side measurements of this screen, not its main read-out; they come without a call. Compounds called inactive in the main read-out are mostly missing here. Potencies come from curve fits of mixed quality, noted in brackets.

Assay: qHTS Assay for Modulators of Lamin A Splicing
Settings: HeLa LMNA splicing GFP/RFP minigene ratio, 48 h
Summary of the method: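 S3 HeLa cells stably expressing lamin A-EGFP splicing minigene plus DsRed2, 600 cells/well, 48 h compound exposure at 37C. Laser-scanning cytometry; analysed as GFP (500-530 nm)/RFP (575-640 nm) total intensity ratio; 0.5% DMSO vehicle.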

[1] = measured here: RFP viability control channel
[2] = measured here: GFP splicing reporter channel

Row | Structure (SMILES) | AC50 [1] | AC50 [2]
1 | C=CCN1C(=O)/C(=N/n2cnnc2)c2ccccc21 | 3.55 µM [falling, partial curve] | 
2 | Cc1ccc(NC(=O)c2ccc(Nc3c([N+](=O)[O-])cc([N+](=O)[O-])cc3[N+](=O)[O-])cc2)cc1 | 3.55 µM [falling, single point] | 
3 | CCn1c(SCC(=O)NCc2ccc3c(c2)OCO3)nnc1-c1c[nH]c2ccccc12 | 17.8 µM [rising, single point] | 
4 | Cc1cn2c(=O)cc(COC(=O)c3ccc(NC(=O)C(C)Oc4ccccc4)cc3)nc2s1 (centres undefined) |  | 11.2 µM [falling, partial curve, poor fit]
5 | O=C(Nc1ccc2ccccc2c1)C(c1ccccc1)C1CCCC1 (centres undefined) | 15.8 µM [rising, partial curve] | 
6 | Cc1ccc(Nc2nc3ccccc3c(=O)s2)cc1C | 35.5 µM [rising, single point] | 31.6 µM [rising, single point]
7 | Cc1cc(=O)c2ccc(Cl)cc2[nH]1 | 15.8 µM [rising, partial curve, poor fit] | 
8 | COc1ccc(CCNC(=O)c2cc(=O)[nH]c3ccc(S(=O)(=O)N4CCCCC4C)cc23)cc1OC (centres undefined) |  | 6.31 µM [falling, partial curve, poor fit]
9 | COc1ccc(-c2ccc(-c3noc(-c4cccc(OC)c4)n3)c(OC)n2)cc1 | 7.08 µM [rising, partial curve, poor fit] | 0.0224 µM [rising, full curve, poor fit]
10 | O=C(CCc1nc(-c2ccccc2)no1)Nc1cc(C(F)(F)F)ccc1Cl |  | 35.5 µM [rising, single point]
11 | O=C(Nc1cc(Cl)cc(Cl)c1)c1cc(S(=O)(=O)N2CCC3(CC2)OCCO3)ccc1F | 0.141 µM [falling, full curve, poor fit] | 
12 | O=C(Nc1ccccc1N1CCCCC1)c1cccs1 | 22.4 µM [rising, single point] | 
13 | CCSc1ccc2nnc(-c3cccs3)n2n1 |  | 0.01 µM [rising, full curve, poor fit]
14 | CC/C(=N\NC(=O)c1ccoc1C)c1ccc(C)o1 |  | 0.794 µM [rising, partial curve]
15 | COC1=C(N)C(=O)c2nc(-c3nc(C(=O)O)c(C)c(-c4ccc(OC)c(OC)c4O)c3N)ccc2C1=O | 0.126 µM [rising, full curve, poor fit] | 0.126 µM [falling, full curve, poor fit]
16 | CCOc1ccc(Br)cc1S(=O)(=O)Nc1cccc(-c2ccc(OC)nn2)c1 | 35.5 µM [falling, single point] | 22.4 µM [falling, partial curve, poor fit]
17 | Cc1ccnc(NC(c2ccsc2)c2ccc3ccc(C)nc3c2O)c1 (centres undefined) | 28.2 µM [falling, single point] | 
18 | CCOc1ccc(S(=O)(=O)n2ccc(C)n2)c2ccccc12 | 35.5 µM [rising, single point] | 
19 | COc1cc2c(cc1OC)C(c1cc3cc4c(cc3[nH]c1=O)OCO4)N(C(=O)C1CC1)CC2 (centres undefined) | 12.6 µM [rising, partial curve, poor fit] | 

Row | Structure (SMILES) | AC50 [1] | AC50 [2]
20 | CCOC(=O)Nc1ccc2c(c1)N(C(=O)N(CC)CC)c1ccccc1CC2 | 35.5 µM [rising, single point] | 
21 | O=C(CSc1ccc([N+](=O)[O-])cn1)Nc1ccc2c(c1)OCCO2 |  | 4.47 µM [rising, partial curve]
22 | COc1ccc(OC)c2c1C(=O)c1ccccc1C2=O |  | 0.126 µM [rising, full curve, poor fit]
23 | CC12CC(c3ccccc3O1)N(C(=O)c1ccco1)C(=S)N2c1ccc(F)cc1 (centres undefined) | 11.2 µM [falling, partial curve] | 28.2 µM [falling, single point]
24 | COC(=O)c1cn(NC(=O)c2cc([N+](=O)[O-])ccc2F)c(=O)c2ccccc12 | 11.2 µM [falling, partial curve, poor fit] | 0.562 µM [falling, full curve]
25 | Cc1ccc(C(=O)CSc2nnc(-c3ccco3)n2Cc2ccccc2)cc1 | 11.2 µM [rising, partial curve] | 11.2 µM [rising, partial curve]
26 | CC(=O)Nc1ccc(Sc2ncccc2C(=O)Nc2ccc(F)cc2)cn1 |  | 15.8 µM [rising, partial curve]
27 | O=C(OCCN1CCOCC1)c1cccs1 |  | 2.24 µM [rising, full curve]
28 | Cc1ccccc1NC(=O)/C(C#N)=C\c1ccsc1 | 8.91 µM [rising, partial curve] | 
29 | Cc1cc(/C=N/n2cnnc2)c(C)n1-c1ccc(OCc2ccccc2F)cc1 | 7.94 µM [falling, partial curve] | 
30 | CC1CCCN(CCCNC(=O)c2cc3c(Cl)nc4ccccc4c3s2)C1 (centres undefined) |  | 35.5 µM [falling, single point]
31 | C/C(Cl)=C/Cn1c(N2CCCC2)nc2c1c(=O)n(C)c(=O)n2C | 10 µM [rising, partial curve, poor fit] | 
32 | CCc1ccccc1N(C)C(=O)c1sc2nc3n(c(=O)c2c1C)CCCCC3 | 2.82 µM [rising, partial curve, poor fit] | 5.01 µM [rising, partial curve]
33 | CCCCS(=O)(=O)Nc1ccc(Cc2ccncc2)cc1 | 15.8 µM [rising, single point] | 20 µM [rising, partial curve]
34 | FC(F)(F)c1cccc(N2CCN(C(=S)NC3CCCCC3)CC2)c1 | 35.5 µM [rising, single point] | 35.5 µM [rising, single point]
35 | Cc1cccc(NC(=O)CNC(=O)COc2ccc(-c3ccc(C#N)cc3)cc2)c1C | 12.6 µM [rising, partial curve] | 11.2 µM [rising, single point]
36 | COCCNC(=O)c1cc(-c2cccs2)on1 | 35.5 µM [falling, single point] | 35.5 µM [falling, single point]
37 | O=S(=O)(NCc1ccccc1)NCc1ccccc1F | 6.31 µM [falling, partial curve] | 
38 | COCC(C)NC(=O)CSc1nc(-c2ccccc2)c(-c2ccccc2)o1 (centres undefined) | 35.5 µM [rising, single point] | 

4 compounds from above, arranged by molar mass, ascending:
Row | Structure (SMILES) | AC50 [1] | AC50 [2]
36 | COCCNC(=O)c1cc(-c2cccs2)on1 | 35.5 µM [falling, single point] | 35.5 µM [falling, single point]
34 | FC(F)(F)c1cccc(N2CCN(C(=S)NC3CCCCC3)CC2)c1 | 35.5 µM [rising, single point] | 35.5 µM [rising, single point]
32 | CCc1ccccc1N(C)C(=O)c1sc2nc3n(c(=O)c2c1C)CCCCC3 | 2.82 µM [rising, partial curve, poor fit] | 5.01 µM [rising, partial curve]
30 | CC1CCCN(CCCNC(=O)c2cc3c(Cl)nc4ccccc4c3s2)C1 (centres undefined) |  | 35.5 µM [falling, single point]

Next entries follow.

Row | Structure (SMILES) | AC50 [1] | AC50 [2]
39 | Oc1c(C(c2cccs2)N2CCN(c3ccccc3)CC2)ccc2cccnc12 (centres undefined) | 6.31 µM [falling, single point] | 
40 | CC(C(=O)NCCC1=CCCCC1)c1ccc([N+](=O)[O-])cc1 (centres undefined) |  | 0.0316 µM [falling, full curve, poor fit]
41 | CCCCOc1ccc(CSCCN=C(N)N)cc1 | 0.00282 µM [falling, full curve, poor fit] | 35.5 µM [falling, partial curve, poor fit]
42 | CCOC(=O)c1ccccc1NC(=O)CN(c1cccc(OC)c1)S(C)(=O)=O | 11.2 µM [rising, partial curve] | 8.91 µM [rising, partial curve]
43 | COc1ccc(Nc2nc(-c3ccccc3)c3ccccc3n2)cc1 | 20 µM [rising, single point] | 
44 | O=C(/C=C/c1ccccc1Cl)NCCc1ccc(F)cc1 |  | 0.251 µM [rising, full curve, poor fit]
45 | CC1CCN(c2nnc(-c3cccs3)c3ccccc23)CC1 | 4.47 µM [rising, partial curve] | 
46 | Cc1cc(-c2ccc(/C=N/n3cnnc3)o2)ccc1Cl |  | 39.8 µM [falling, partial curve, poor fit]
47 | CC(=O)Oc1ccc2c(c1)Oc1cc(OC(C)=O)ccc1C21OC(=O)c2ccccc21 | 0.112 µM [falling, full curve] | 0.112 µM [falling, full curve]
48 | COc1ccc(CNc2ccnc(-c3ccoc3)n2)c(OC)c1 |  | 12.6 µM [falling, partial curve]
49 | Cc1cccc(-c2noc(CN(C)S(=O)(=O)c3cc(Cl)ccc3Cl)n2)c1 | 35.5 µM [rising, single point] | 
50 | COc1cc(OC)cc(C(=O)Oc2ccc(/C=N/Nc3nc4ccccc4s3)cc2OC)c1 | 17.8 µM [rising, partial curve, poor fit] | 20 µM [rising, partial curve, poor fit]
51 | CN(CCCC(=O)Nc1nccs1)S(=O)(=O)c1ccc(Cl)cc1 | 17.8 µM [rising, partial curve, poor fit] | 
52 | CCCCNc1c(C(=O)OCC)c(C)nc2c1cnn2CC | 316 nM [falling, single point] and 25.1 µM [falling, single point] | 355 nM [falling, full curve, poor fit] and 126 nM [falling, full curve, poor fit]
53 | CCn1c2ccccc2c2cc([N+](=O)[O-])ccc21 | 5.01 µM [rising, partial curve] | 
54 | O=c1nc2sc3ccccc3n2c(=O)n1-c1ccc(Cl)cc1 | 35.5 µM [rising, single point] | 
55 | CCOc1ccc(CNC(=O)c2ccc3c(c2)nc2n3CCCCC2)cc1 |  | 0.0224 µM [rising, partial curve, poor fit]
56 | CC(C)(C)NC(=O)c1nc2ccccc2s1 | 2.82 µM [falling, partial curve, poor fit] | 
57 | Cc1nc2ccccc2nc1CSc1nncs1 |  | 20 µM [rising, single point]
